Data from PubChem BioAssay AID540256 (National Center for Advancing Translational Sciences (NCATS), 2011).
The whole screen tested about 300,000 compounds, of which about 3,700 (1.2%) were called active. Inconclusive results, whose numbers are uncertain, are shown with a selection of clear calls. Calls follow the shape of the full dose curve; tested in HEK293 cells. Potencies beside an inconclusive call are fits to weak or partial responses and may not hold up.

Assay: qHTS for Inhibitors of binding or entry into cells for Lassa Virus; also: nearly all actives have a fitted effect of over 50% in size
Conditions: Lassa virus pseudotype entry inhibition, cell reporter; series mostly up to 37.9 µM
Potency is read from the fitted curve at half-maximal effect.

Compound	Potency
O=C1Nc2ccccc2/C1=C/c1cnc(-c2ccccc2)[nH]1	inconclusive: 0.891 µM [activator, partial curve, poor fit]
COc1ccc(N2CC(C(=O)NC3CCSC3=O)CC2=O)cc1 (stereo not given)	inactive
Cc1[nH]c2ccccc2c1C(=O)CSC(=S)N(C)C1CCCCC1	inconclusive: 6.31 µM [activator, partial curve, poor fit]
CCOc1ccc(Nc2nc(N3CCCCC3)nc(N3CCCCC3)n2)cc1	inconclusive: 13 µM [inhibitor, partial curve, poor fit]
N#Cc1cccc(S(=O)(=O)NCC(=O)NCCCc2ccccc2)c1	inactive
COc1cccc(-n2cc(C(=O)NCCc3ccc(C)cc3)c3ccccc3c2=O)c1	inactive
CC(Sc1nnc2ccccn12)C(=O)Nc1ncc(Cl)cc1Cl (stereo not given)	inactive
O=C(CN1C(=O)NC2(CCCCCC2)C1=O)Nc1ccccc1[N+](=O)[O-]	inconclusive: 14.1 µM [inhibitor, single point]
COc1ccc(-n2nc(C(=O)NCC(=O)N3CCN(c4ccccn4)CC3)c3ccccc3c2=O)cc1Cl	inactive
CCN(CC)S(=O)(=O)c1ccc(N2CCOCC2)c(NC(=O)c2cc(=O)[nH]c3ccccc23)c1	inactive
C=CCNC(=O)c1cc(-c2ccc3c(c2)OCO3)on1	inconclusive: 12.6 µM [inhibitor, partial curve, poor fit]
COc1ccc(OCCSc2nnc(C)n2-c2ccccc2)cc1	active: 9.2 µM
CCCn1c2ccccc2c2nnc(SCc3[nH]c(=O)[nH]c3C(=O)CCCCC(=O)OCC)nc21	inactive
Cc1ccc(C(C)C)cc1OCCN1CCCC1	inconclusive: 18.4 µM [inhibitor, partial curve, poor fit]
Cc1ccccc1/C=N/Nc1ccnc2cc(Cl)ccc12	inconclusive: 29.1 µM [inhibitor, single point]
C(=N\NC(=Nc1ccccc1)c1ccccn1)/c1ccccn1	inconclusive: 35.5 µM [inhibitor, single point]
O=C(NNC(=O)C1CC=CCC1)c1ccccc1O (stereo not given)	inconclusive: 11.2 µM [activator, partial curve, poor fit]
O=C(Nc1cccc(S(=O)(=O)C(F)F)c1)c1ccc(S(=O)(=O)N2CCCC2)cc1	active: 5.01 µM
C=CCn1c(=O)c2ccccc2n2c(SCc3c(C(=O)OCC)oc4ccccc34)nnc12	inconclusive: 7.3 µM [inhibitor, partial curve, poor fit]
Fc1ccc(-n2cc(-c3ccccc3)c3c(NN4CCOCC4)ncnc32)cc1	inconclusive: 22.4 µM [inhibitor, partial curve, poor fit]
O=C(c1cccn1-c1nnc(N2CCCC2)s1)N1CCN(c2ccccc2)CC1	inactive
CCCCC/C(=N\NC(=O)Nc1ccccc1)c1ccccc1	inactive
CC12CC(NC(=O)N1c1cccc(C(=O)NCc3ccc4c(c3)OCO4)c1)c1cc(Cl)ccc1O2 (stereo not given)	inconclusive: 22.4 µM [inhibitor, single point]
COc1cc(-c2nc(Cn3nnc(C(=O)Nc4ccccc4)c3C)c(C)o2)cc(OC)c1OC	inconclusive: 1.26 µM [inhibitor, full curve, poor fit]

Compound	Potency
CCOC(=O)CCNC(=O)CCc1nnc(CCCc2ccccc2)o1	inactive
COC(=O)c1cc(CSC(=N)N)ccc1OCCC(C)C	inconclusive: 35.5 µM [inhibitor, single point]
COc1ccc(/C=N/NC(=O)CCC(=O)Nc2ccc(Br)cc2)c(OC)c1	inconclusive: 0.708 µM [inhibitor, single point]
O=[N+]([O-])c1ccccc1CSc1nnc2ccccn12	inactive
CN(C)CCN1C(=O)c2cccc3cc([N+](=O)[O-])cc(c23)C1=O	active: 0.447 µM
Cc1ccc(OCCC(=O)N(CCC(C)C)c2c(N)n(Cc3ccccc3)c(=O)[nH]c2=O)cc1	inconclusive: 35.5 µM [inhibitor, single point]
CCN(CC)S(=O)(=O)c1cc(NC(=O)CSCc2c(C)noc2C)ccc1C	active: 2.82 µM
Cc1ccc(SCC(=O)Nc2nnc(C(C)(C)C)s2)cc1	inactive
Cc1ccc(/C(N)=N/OC(=O)c2cccc(Cn3cc(C(F)(F)F)ccc3=O)c2)cc1	inconclusive: 15.8 µM [inhibitor, single point]
COc1ccc(CC(=O)OCC(=O)N2N=C(c3ccccc3)CC2c2ccc(OC)cc2)cc1 (stereo not given)	inactive
O=C(O)c1ccccc1C(=O)N(Cc1ccccc1)Cc1ccccc1	inconclusive: 6.51 µM [activator, single point]
Cc1ccc(C(=O)NN2C(=O)/C(=C/c3cn(C)c4ccccc34)SC2=S)cc1	inconclusive: 35.5 µM [inhibitor, single point]
CCN(Cc1ccccc1)S(=O)(=O)c1ccc(C(=O)N(CCCN(C)C)c2nc3cc(C)cc(C)c3s2)cc1	inconclusive: 8.91 µM [inhibitor, partial curve, poor fit]
O=[N+]([O-])c1ccc(-c2csc3[n+]2CCS3)cc1	inactive
O=C(Cn1cnc2c(oc3ccccc32)c1=O)Nc1ccc(F)cc1F	inactive
Cc1ccccc1OCCC(=O)OCC(=O)Nc1cc(S(=O)(=O)N2CCOCC2)ccc1Cl	inactive
c1ccc(OCCCCN2CCCCC2)cc1	inconclusive: 6.31 µM [activator, single point]
O=C(Nc1ccc2c(c1)OCO2)N1CCN(c2ncccn2)CC1	inconclusive: 5.17 µM [activator, full curve]
c1ccc(Oc2ncnc3ccccc23)cc1	inactive
COc1cc(/C=C/c2ccc3cccc(O)c3n2)cc(Cl)c1OC	inconclusive: 35.5 µM [inhibitor, single point]
Cc1cc(C)n2nc(N)c(N=Nc3cccc(Cl)c3)c2n1	inconclusive: 7.08 µM [inhibitor, partial curve]
O=C(c1cc(S(=O)(=O)N2CCN(c3ccccc3)CC2)ccc1Cl)N1CCCC(C(F)(F)F)C1 (stereo not given)	inconclusive: 3.98 µM [inhibitor, full curve]
O=C(NCC(c1cccnc1)N1CCOCC1)Oc1ccccc1 (stereo not given)	inactive
Cc1nc2nc(SCC(=O)C(C)(C)C)[nH]c2cc1Br	inconclusive: 7.94 µM [inhibitor, partial curve]

Grouped by structure: the compounds so far containing a Cl atom.
Compound	Potency
CC(Sc1nnc2ccccn12)C(=O)Nc1ncc(Cl)cc1Cl (stereo not given)	inactive
COc1ccc(-n2nc(C(=O)NCC(=O)N3CCN(c4ccccn4)CC3)c3ccccc3c2=O)cc1Cl	inactive
Cc1ccccc1/C=N/Nc1ccnc2cc(Cl)ccc12	inconclusive: 29.1 µM [inhibitor, single point]
CC12CC(NC(=O)N1c1cccc(C(=O)NCc3ccc4c(c3)OCO4)c1)c1cc(Cl)ccc1O2 (stereo not given)	inconclusive: 22.4 µM [inhibitor, single point]
Cc1ccccc1OCCC(=O)OCC(=O)Nc1cc(S(=O)(=O)N2CCOCC2)ccc1Cl	inactive
COc1cc(/C=C/c2ccc3cccc(O)c3n2)cc(Cl)c1OC	inconclusive: 35.5 µM [inhibitor, single point]
Cc1cc(C)n2nc(N)c(N=Nc3cccc(Cl)c3)c2n1	inconclusive: 7.08 µM [inhibitor, partial curve]
O=C(c1cc(S(=O)(=O)N2CCN(c3ccccc3)CC2)ccc1Cl)N1CCCC(C(F)(F)F)C1 (stereo not given)	inconclusive: 3.98 µM [inhibitor, full curve]

Reprinted at random: two compounds from above, in no set order.
Compound	Potency
COc1ccc(CC(=O)OCC(=O)N2N=C(c3ccccc3)CC2c2ccc(OC)cc2)cc1 (stereo not given)	inactive
O=C(c1cc(S(=O)(=O)N2CCN(c3ccccc3)CC2)ccc1Cl)N1CCCC(C(F)(F)F)C1 (stereo not given)	inconclusive: 3.98 µM [inhibitor, full curve]

Later entries.

Compound	Potency
Cc1ccccc1OCCNC(=S)Nc1ccccc1	inconclusive: 11.2 µM [inhibitor, partial curve]
CC(=O)c1sc(NCc2ccc(C)cc2)nc1C	inconclusive: 7.08 µM [inhibitor, full curve, poor fit]
CC(C)CCNC(=O)C(c1ccco1)N(Cc1cccs1)C(=O)Cn1nnc2ccccc21 (stereo not given)	inconclusive: 7.94 µM [inhibitor, partial curve, poor fit]
Nn1c(Cc2cccc3ccccc23)nnc1SCCOc1ccc(Br)cc1	inconclusive: 32.6 µM [inhibitor, single point]
O=C(CN1c2cccc3cccc(c23)S1(=O)=O)NCc1ccc2c(c1)OCO2	inconclusive: 6.51 µM [activator, single point]
COc1cc(Cl)c(NS(=O)(=O)c2ccc(-c3cnc(C4CC4)o3)cc2)c(OC)c1	inconclusive: 6.31 µM [inhibitor, partial curve, poor fit]
Cc1ccc(C)c(N2CCN(C(=O)c3cccn4c(=O)c5sccc5nc34)CC2)c1	inconclusive: 22.4 µM [inhibitor, single point]
O=C(O)CCCN1C(=O)NC2NC(=O)NC21 (stereo not given)	inconclusive: 3.98 µM [activator, full curve, poor fit]
CCC(=O)NNC(=S)NC(=O)c1ccc(C)cc1	inconclusive: 1.12 µM [inhibitor, single point]
CC(O)CN1C(=O)C(CC(=O)Nc2ccc(Cl)cc2)SC1=Nc1ccccc1 (stereo not given)	inconclusive: 12.6 µM [inhibitor, single point]
O=C(NC(=S)NC12CC3CC(CC(C3)C1)C2)c1ccc(F)cc1	inconclusive: 5.62 µM [inhibitor, full curve]
O=C(Nc1ccc(F)cc1F)Nc1csc2ccccc12	inconclusive: 4.47 µM [inhibitor, partial curve, poor fit]
Cc1ccc2nc(CSc3nc(C)ccc3C#N)[nH]c2c1	active: 1.03 µM
O=C(CNS(=O)(=O)c1ccccc1)NCc1cccnc1	inactive
COc1cccc(-n2c(SCC(=O)NCCc3ccccc3)nnc2-c2ccoc2C)c1	inconclusive: 14.1 µM [inhibitor, partial curve]
Cc1ccc(-n2nc3c(c2NC(=O)C(C)(C)C)CSC3)c(C)c1	inconclusive: 2.31 µM [activator, full curve]
CCC(=O)N1CCN(c2ccc(NC(=O)c3ccco3)cc2Cl)CC1	inconclusive: 0.794 µM [inhibitor, single point]
Cc1cc(NC(=O)CSc2nc3ccccc3n2CCC#N)no1	inactive
O=C(c1ccccc1NS(=O)(=O)c1ccc(Br)cc1)N1CCOCC1	inconclusive: 3.55 µM [activator, single point]
CCC1(c2ccc(Cl)cc2)NC(=O)N(Cc2ccc(C(=O)OC)cc2)C1=O (stereo not given)	inconclusive: 8.91 µM [inhibitor, partial curve, poor fit]
COc1ccccc1N1CCN(c2ccc(-c3ccccc3)nn2)CC1	active: 3.55 µM
COc1ccc2[nH]cc(CCNS(=O)(=O)c3ccc(C)cc3)c2c1	inconclusive: 35.5 µM [inhibitor, single point]
